Record: PubChem BioAssay AID1259405 (NCATS, 2018)
The whole screen tested about 50,000 reagents; below is a random part of them. In the full data, about 4,000 (8%) were called active. 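Mouse siRNA library applied to hamster cells; one well for each siRNA.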 The numbers tell different reagents against one gene apart. Reagent sequences are not shown.

- Aim: 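Silenced genes that increase secreted GFP made by CHO cells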 (primary screen)
- Cells: Chinese hamster CHO-K1 ovary cells with stable secreted eGFP expression
- Reagents: single siRNA against mouse genes, 0.8 pmol siRNA per well (2 µl of 400 nM stock)
- Time to read-out: 3 days
- Read-out: 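Per-well intracellular GFP measured by laser scanning cytometry, plus viability from ATP luminescence, each relative to plate median of non-targeting control wells, in %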
- Scale: GFP, % of control: higher = more GFP per well, higher productivity; viability (ATP), % of control: higher = more viable cells (more ATP)
- Active means: 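a knock-down is called active if GFP reaches 120% or more of non-targeting control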

no.	Gene	reagent	GFP, % of control	viability (ATP), % of control	Outcome
1	Sema3a (GeneID 20346)	1	71.7	77.7	inactive
2	Sema3a (GeneID 20346)	2	28.4	36.7	inactive
3	Sema3a (GeneID 20346)	3	33.6	47.5	inactive
4	Nploc4 (GeneID 217365)	1	56.4	26.8	inactive
5	Nploc4 (GeneID 217365)	2	62	77.4	inactive
6	Nploc4 (GeneID 217365)	3	121	92.1	active
7	Sipa1l1 (GeneID 217692)	1	80.2	79.2	inactive
8	Sipa1l1 (GeneID 217692)	2	120	103	active
9	Sipa1l1 (GeneID 217692)	3	79.6	80.6	inactive
10	Ppp1r26 (GeneID 241289)	1	64.6	68.8	inactive
11	Ppp1r26 (GeneID 241289)	2	38.3	50.4	inactive
12	Ppp1r26 (GeneID 241289)	3	101	65.2	inactive
13	Acp7 (GeneID 101744)	1	28.7	21.9	inactive
14	Acp7 (GeneID 101744)	2	24.1	35.2	inactive
15	Acp7 (GeneID 101744)	3	57.4	81.6	inactive
16	Zyx (GeneID 22793)	1	35.5	17.7	inactive
17	Zyx (GeneID 22793)	2	61.8	56.5	inactive
18	Zyx (GeneID 22793)	3	94.7	91.2	inactive
19	Ikzf5 (GeneID 67143)	1	55.8	65.4	inactive
20	Ikzf5 (GeneID 67143)	2	92.5	105	inactive
21	Ikzf5 (GeneID 67143)	3	112	85.7	inactive
22	Tor2a (GeneID 30933)	1	147	116	active
23	Tor2a (GeneID 30933)	2	85	91.1	inactive
24	Tor2a (GeneID 30933)	3	101	97.7	inactive
25	4930471G03Rik (GeneID 74966)	1	120	67.7	active
26	4930471G03Rik (GeneID 74966)	2	49.5	66.4	inactive
27	4930471G03Rik (GeneID 74966)	3	67.9	90.8	inactive
28	Dlx4 (GeneID 13394)	1	118	89	inactive
29	Dlx4 (GeneID 13394)	2	69.7	74.2	inactive
30	Dlx4 (GeneID 13394)	3	44.8	34.1	inactive
31	Xpnpep2 (GeneID 170745)	1	80.3	76.4	inactive
32	Xpnpep2 (GeneID 170745)	2	84.8	68.8	inactive
33	Xpnpep2 (GeneID 170745)	3	52.1	52.2	inactive
34	Septin12 (GeneID 71089)	1	70.5	43.7	inactive
35	Septin12 (GeneID 71089)	2	35.3	57.4	inactive
36	Septin12 (GeneID 71089)	3	77.9	67	inactive
37	Grik4 (GeneID 110637)	1	86.2	90.5	inactive
38	Grik4 (GeneID 110637)	2	66.2	72.6	inactive
39	Grik4 (GeneID 110637)	3	67.1	50.8	inactive
40	Rps27 (GeneID 57294)	1	59.3	43.5	inactive
41	Rps27 (GeneID 57294)	2	112	70.3	inactive
42	Rps27 (GeneID 57294)	3	53.2	46.8	inactive
43	Cks1b (GeneID 54124)	1	74.7	166	inactive
44	Cks1b (GeneID 54124)	2	76.4	70.5	inactive
45	Htr2a (GeneID 15558)	1	68.3	75	inactive
46	Htr2a (GeneID 15558)	2	66.9	72.4	inactive
47	Htr2a (GeneID 15558)	3	66	79.4	inactive
48	Rab5a (GeneID 271457)	1	99.6	87.3	inactive
49	Rab5a (GeneID 271457)	2	95.9	54.9	inactive
50	Rab5a (GeneID 271457)	3	130	95	active
51	Mtarc2 (GeneID 67247)	1	58.7	54.8	inactive
52	Mtarc2 (GeneID 67247)	2	49.7	49.7	inactive
53	Mtarc2 (GeneID 67247)	3	79.6	85.6	inactive
54	Nrarp (GeneID 67122)	1	87.2	49.8	inactive
55	Nrarp (GeneID 67122)	2	100	96.2	inactive
56	Nrarp (GeneID 67122)	3	83.1	55.6	inactive
57	Tlk2 (GeneID 24086)	1	69.2	77.2	inactive
58	Tlk2 (GeneID 24086)	2	36.4	67.5	inactive
59	Tlk2 (GeneID 24086)	3	81.2	68.2	inactive
60	Ppp4r2 (GeneID 232314)	1	88.2	119	inactive
61	Ppp4r2 (GeneID 232314)	2	83.1	57.9	inactive
62	Gata2 (GeneID 14461)	1	53.1	58.9	inactive
63	Gata2 (GeneID 14461)	2	66.9	63	inactive
64	Hnrnpd (GeneID 11991)	1	40.7	28	inactive
65	Hnrnpd (GeneID 11991)	2	98.7	82.8	inactive
66	Hnrnpd (GeneID 11991)	3	88.6	36.4	inactive
67	Ppp4r1 (GeneID 70351)	1	90.1	120	inactive
68	Ppp4r1 (GeneID 70351)	2	54	43.9	inactive
69	Ppp4r1 (GeneID 70351)	3	57.7	84.1	inactive
70	Or10x1 (GeneID 258238)	1	15.8	20.6	inactive
71	Or10x1 (GeneID 258238)	2	121	110	active
72	Or10x1 (GeneID 258238)	3	88.4	68.6	inactive
73	Rxylt1 (GeneID 216395)	1	75.4	103	inactive
74	Rxylt1 (GeneID 216395)	2	107	125	inactive
75	Rxylt1 (GeneID 216395)	3	142	115	active
76	Cand2 (GeneID 67088)	1	0	19.2	inactive
77	Cand2 (GeneID 67088)	2	81.5	87	inactive
78	Anapc4 (GeneID 52206)	1	67.7	66.1	inactive
79	Anapc4 (GeneID 52206)	2	70.4	52	inactive
80	Anapc4 (GeneID 52206)	3	92.9	92.1	inactive
81	Sparc (GeneID 20692)	1	70.9	41.4	inactive
82	Sparc (GeneID 20692)	2	93	84.7	inactive
83	Sparc (GeneID 20692)	3	82.6	78	inactive
84	Grm4 (GeneID 268934)	1	42.8	68.1	inactive
85	Grm4 (GeneID 268934)	2	67.7	70.3	inactive
86	Grm4 (GeneID 268934)	3	68.9	74.3	inactive
87	Dynlt1b (GeneID 21648)	1	91.7	57.1	inactive
88	Dynlt1b (GeneID 21648)	2	93.3	94.8	inactive
89	Dynlt1b (GeneID 21648)	3	75.2	73.2	inactive
90	Exoc3l2 (GeneID 74463)	1	70.3	83.8	inactive
91	Exoc3l2 (GeneID 74463)	2	101	113	inactive
92	Exoc3l2 (GeneID 74463)	3	118	136	inactive
93	Taf2 (GeneID 319944)	1	59.5	63.8	inactive
94	Taf2 (GeneID 319944)	2	81.9	100	inactive
95	Myd88 (GeneID 17874)	1	82.3	96.2	inactive
96	Myd88 (GeneID 17874)	2	120	87.1	inactive
97	Commd5 (GeneID 66398)	1	50.5	78.8	inactive
98	Commd5 (GeneID 66398)	2	69.5	75.4	inactive
99	Commd5 (GeneID 66398)	3	93.1	95.6	inactive
100	Edc3 (GeneID 353190)	1	30.4	33.2	inactive
101	Edc3 (GeneID 353190)	2	109	51.1	inactive
102	Edc3 (GeneID 353190)	3	88.1	102	inactive
103	Or4g7 (GeneID 258395)	1	84	72.6	inactive
104	Or4g7 (GeneID 258395)	2	63.5	81.9	inactive
105	Or4g7 (GeneID 258395)	3	62.7	104	inactive
106	Rps21 (GeneID 66481)	1	75.5	59.8	inactive
107	Rps21 (GeneID 66481)	2	64.5	29.1	inactive
108	Rps21 (GeneID 66481)	3	51	60.7	inactive

A few values from the entries so far.
Result for Ppp4r1 (GeneID 70351) #3 in “GFP, % of control”: 57.7
Nrarp (GeneID 67122) #1, viability (ATP), % of control → 49.8
Under “Outcome”, Acp7 (GeneID 101744) #1 shows inactive
For “viability (ATP), % of control”, Rab5a (GeneID 271457) #2 has 54.9
Entry of Sparc (GeneID 20692) #3 in “GFP, % of control”: 82.6
Under “GFP, % of control”, Anapc4 (GeneID 52206) #1 is entered as 67.7
